Laboratory results published in patent US20260049134A1.
No constants are given. Whether binding was seen depends on the method and setting. Some entries that bind do so weakly or less than the wild type. For some of these results: Sequences can lack the tags named with a protein.

T1: GARS-His (Sino Biological) (human) (UniProt P41250)
T1 sequence: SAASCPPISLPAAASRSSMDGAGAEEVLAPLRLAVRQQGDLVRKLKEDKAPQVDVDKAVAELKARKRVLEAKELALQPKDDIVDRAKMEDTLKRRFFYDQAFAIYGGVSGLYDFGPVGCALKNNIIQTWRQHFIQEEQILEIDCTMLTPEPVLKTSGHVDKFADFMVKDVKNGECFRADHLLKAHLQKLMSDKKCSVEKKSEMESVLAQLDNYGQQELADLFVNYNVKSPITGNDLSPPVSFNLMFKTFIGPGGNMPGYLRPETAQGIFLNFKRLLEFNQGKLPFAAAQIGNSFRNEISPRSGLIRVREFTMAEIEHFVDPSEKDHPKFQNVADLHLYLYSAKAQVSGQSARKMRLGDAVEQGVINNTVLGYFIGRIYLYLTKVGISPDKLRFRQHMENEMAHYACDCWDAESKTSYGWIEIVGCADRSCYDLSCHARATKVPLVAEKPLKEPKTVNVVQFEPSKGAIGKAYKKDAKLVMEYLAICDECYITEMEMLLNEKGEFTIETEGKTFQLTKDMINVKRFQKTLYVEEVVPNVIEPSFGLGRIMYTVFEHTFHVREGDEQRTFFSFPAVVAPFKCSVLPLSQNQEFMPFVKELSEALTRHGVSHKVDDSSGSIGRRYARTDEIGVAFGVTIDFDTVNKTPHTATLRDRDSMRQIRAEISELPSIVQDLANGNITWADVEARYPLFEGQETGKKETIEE

T2: GARS, endogenous in H929 multiple myeloma cells (human) (UniProt P41250)
T2 sequence: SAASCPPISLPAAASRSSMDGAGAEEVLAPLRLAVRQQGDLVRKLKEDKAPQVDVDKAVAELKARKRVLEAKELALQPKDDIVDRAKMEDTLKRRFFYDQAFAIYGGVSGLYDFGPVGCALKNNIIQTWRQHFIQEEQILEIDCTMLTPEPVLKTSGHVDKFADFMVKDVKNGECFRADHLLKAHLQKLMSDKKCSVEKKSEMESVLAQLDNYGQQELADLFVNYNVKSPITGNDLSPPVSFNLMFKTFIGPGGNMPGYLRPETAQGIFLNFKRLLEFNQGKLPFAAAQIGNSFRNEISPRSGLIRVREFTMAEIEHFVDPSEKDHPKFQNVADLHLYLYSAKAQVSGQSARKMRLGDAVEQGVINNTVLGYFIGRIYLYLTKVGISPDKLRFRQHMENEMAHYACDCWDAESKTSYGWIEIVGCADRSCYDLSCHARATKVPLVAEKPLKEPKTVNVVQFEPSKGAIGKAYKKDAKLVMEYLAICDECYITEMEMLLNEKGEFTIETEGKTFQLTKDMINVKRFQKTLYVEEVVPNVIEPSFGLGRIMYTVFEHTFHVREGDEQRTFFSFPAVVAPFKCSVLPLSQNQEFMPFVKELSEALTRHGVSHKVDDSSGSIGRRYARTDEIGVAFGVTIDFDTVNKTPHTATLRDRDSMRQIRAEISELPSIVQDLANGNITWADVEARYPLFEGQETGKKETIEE

T3: CADM1 expressed on HEK293 cells of the Retrogenix protein array (UniProt Q9BY67)
T3 sequence (looked up): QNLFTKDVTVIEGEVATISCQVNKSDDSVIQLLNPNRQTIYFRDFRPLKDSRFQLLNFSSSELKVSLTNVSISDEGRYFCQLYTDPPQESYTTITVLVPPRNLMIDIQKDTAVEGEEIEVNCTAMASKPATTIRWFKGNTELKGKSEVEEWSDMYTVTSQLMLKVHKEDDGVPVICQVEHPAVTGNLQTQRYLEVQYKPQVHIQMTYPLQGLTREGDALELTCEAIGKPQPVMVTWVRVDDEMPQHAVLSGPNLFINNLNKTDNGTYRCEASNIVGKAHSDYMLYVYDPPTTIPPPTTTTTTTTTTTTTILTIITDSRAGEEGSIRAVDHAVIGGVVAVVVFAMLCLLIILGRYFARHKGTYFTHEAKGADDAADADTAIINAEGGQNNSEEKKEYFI


Tests used:
[1] = target: T1, GARS-His (Sino Biological) (human); assay: ELISA, coated recombinant GARS-His, IgG1, anti-human Fab-peroxidase
[2] = target: T1, GARS-His (Sino Biological) (human); assay: summary table, column Validation (ELISA)
[3] = target: T1, GARS-His (Sino Biological) (human); assay: ELISA on coated protein, 150 ng IgG1, anti-human Fab-HRP, heatmap 0.05-0.8
[4] = target: T2, GARS, endogenous in H929 multiple myeloma cells (human); assay: IP from H929 lysate with LC-MS/MS, correlated with FACS/RNA-seq
[5] = target: T2, GARS, endogenous in H929 multiple myeloma cells (human); assay: IP from H929 cell lysate, LC-MS/MS, plotted against RNA-seq
[6] = target: T3, CADM1 expressed on HEK293 cells of the Retrogenix protein array; assay: summary table, column Retrogenix protein array (targets on HEK293 cells)

Binder	binding [1]	binding [2]	binding [3]	binding [4]	binding [5]	binding [6]
HW-81 chimeric rabbit-human IgG1 LA/LA/PG (antibody, V domains shown) VH: QKQLVESGGGLVTPGGTLTLTCTVSGFSLSSNGVSWVRQAPGKGLEYIGLIRSIGSTYYATWAKGRFTISKTSTTVDLKITSPTTEDTATYFCARGGYRNGFKLWGPGTLVTVSS VL: QPVLTQSPSVSAALGASAKLTCTLSSAHKTYYIEWYQQQHPGKAPRYLMQLQSDGSYTKGTGVPDRFSGSSSGADRYLIISSVQAEDEADYICGVIDSAVYVFGGGTQLTVTG	binds	binds	binds			
HW-45 chimeric rabbit-human IgG1 LA/LA/PG (antibody, V domains shown) VH: QKQLVESGGRLVTPGTPLTLTCTVSGFSLSSYAMGWFRQAPGKGLEWIGIINSYGSTYYASWAKGRFTISKTSTTVDLKITSPTTEDTATYFCGRRIGSARFDPWGPGTLVTVSS VL: SFVLTQPASVQVNLGQTVSLTCTADTLSRSYASWYQQKPGQAPVLLIYRDTRRPSGVPDRFSGSSSGNTATLTISGAQAGDEADYYCATSDGSGSSYRLVFGGGTQLTVTG	binds	binds	binds	binds	binds	
HW-101 chimeric rabbit-human IgG1 LA/LA/PG (antibody, V domains shown) VH: QEQLVESGGRLVTPGTPLTLTCKASGFSLGKYDMSWVRQAPGKGLEWIGTIYAGSGSTWYASWAKGRFTISKTSTTVDLKMTSLTTEDTATYFCARDFLGVNSIWGPGTLVTISS VL: SFVLTQPASVQVNLGQTVSLTCTADTLSRSYASWYQQKPDQAPVLLIHRDTSRPSGVPDRFSGSNSGNTATLTISGAQAGDEADYYCATSDGSGSNFHFVFGGGTQLTVTG						binds
HW-56 chimeric rabbit-human IgG1 LA/LA/PG (antibody, V domains shown) VH: QSVKESEGGLFKPTDTLTLTCTASGFTVSTNAVTWVRQAPGNGLEYIGTIGRSGSAYFASWAKRRSTLTRDINLNTVTLKMTSLTAADTATYFCVRGSPGYRTAISIWGPGTLVTISS VL: AVMTQTPSSTSAAVEGTVTINCQASQSISNRLSWFQQKPGQPPKLLIYQASTLASGVPSRFKGSGSGTEFTLTISGVQREDAATYYCLGSYSSSDASFGGGTKLEIKR	binds	binds	binds			

The next lines start with the values.

binding [1]	binding [2]	binding [3]	binding [4]	binding [5]	binding [6]	Binder
binds	binds	binds				HW-28 chimeric rabbit-human IgG1 LA/LA/PG (antibody, V domains shown) VH: QKQLVESGGRLVTPGTPLTLTCTASGFSLSSNAMSWVRQAPGEGLQWIGTISSGGSTYYASWAKGRFTISKTSTTVTLKMTSLTTEDTATYFCARGADLHRLWGPGTLVTVSS VL: SFVLTQPASVQVNLGQTVSLTCTGKPLSRSFASWYQQKPGQAPVLVIYRDTSRPSGVPDRFSGSSSGNTATLTISGAQAGDEADYYCATSDGSGSSYQYVFGGGTQLTVTG
					binds	HW-97 chimeric rabbit-human IgG1 LA/LA/PG (antibody, V domains shown) VH: QKQLVESGGRLVTPGTPLTLTCTVTGIDLSSHGMSWVRQAPGKGLEWIGVIYPSGSTWYASWARGRFTISKTSTTVDLKMTSLTTEDTATHFCARGDVGGADNNIWGPGTLVTVSS VL: SFVLTQPASVQVDLGQTVSLTCTAETLSRSYASWYQQKPGQAPVLLIYRDTSRPSGVPDRFSGSSSGNTATLTISGAQAGDEADYYCATSDGSGSSYQYVFGGGTQLTVTG
binds	binds	binds				HW-16 chimeric rabbit-human IgG1 LA/LA/PG (antibody, V domains shown) VH: QSLEESGGRLVTPGTPLTLTCTASGFSLSSYAMSWVRQAPGKGLEWIGTMPTGGGTYYASWAKGRFTISKTSTTVDLQITSPTTEDTATYFCAKHWNIWGPGTLVTISS VL: DIVLTQTPSSTSTAVGDTVTINCRASQSIGRNLAWFQQKPGQPPKLLIYRASNLASGVPSRFKGSGSRTQFTLTISGVQREDAATYYCLGSYSSSDTAFGGGTELEILR
